Reference: PubChem BioAssay AID1259254 (NCATS, 2017)
The deposit covers about 59,000 reagents; this is a random part of them. About 1,550 of all reagents (2.6%) were called active. 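G2 share is only a proxy for re-replication; each gene was hit by three separate siRNAs, and active genes were retested.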 A number with no mark means an inactive call. Not all columns of the deposit are shown. Not given: the amount of reagent.

Purpose: 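Finding genes that stop cells copying their DNA twice in one cycle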 (primary screen)
Cells: human HCT116 colorectal cancer cells
Reagent: single siRNA against human genes
Timing: 3 days
Measurement: 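Nuclei stained with Hoechst and imaged; cell-cycle phase assigned by DNA content; G2 share scaled per plate, non-targeting siRNA 0%, GMNN siRNA 100%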
Reading the numbers: G2 robust z-score: higher = more G2 cells, more excess DNA replication
Active means: 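An siRNA counts as active if its G2 robust z-score lies at least 5 MADs above the screen median; here such calls match roughly 38% of GMNN control or more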

The first 2 entries, to show the layout:
Gene | PubChem SID | G2 robust z-score
RIPK1 | SID160720710 | -0.575
RIPK1 | SID160720711 | -1.01

The listing, from the first entry:
Gene | PubChem SID | G2 robust z-score
RIPK1 | SID160720710 | -0.575
RIPK1 | SID160720711 | -1.01
RIPK1 | SID160720712 | -0.784
OR4A15 | SID160750716 | -0.733
OR4A15 | SID160750717 | 2.51
OR4A15 | SID160750718 | -0.754
NIP7 | SID160740739 | -0.0454
NIP7 | SID160740740 | 3.54
NIP7 | SID160740741 | 0.705
PABPC1L | SID160750417 | -0.278
PABPC1L | SID160750419 | -0.67
PABPC1L | SID160750420 | -0.118
LIMS2 | SID160744069 | 1.25
LIMS2 | SID160744070 | -0.33
LIMS2 | SID160744071 | -0.601
ATP23 | SID160753971 | -0.593
ATP23 | SID160753972 | -0.859
ATP23 | SID160753973 | -0.702
POLR3B | SID160744131 | 0.443
POLR3B | SID160744132 | -0.486
POLR3B | SID160744133 | -0.878
NCDN | SID160735577 | 3.31
NCDN | SID160735578 | -0.27
NCDN | SID160735579 | -0.746
MFAP5 | SID160719604 | 0.678
MFAP5 | SID160719605 | 0.0687
MFAP5 | SID160734992 | -0.332
IL11 | SID160775761 | -0.242
IL11 | SID160775762 | 1.85
IL11 | SID160775763 | 4.92
